Experimental data: patent publication US20150335021A1, “Cycloclavine and Derivatives Thereof for Controlling Invertebrate Pests” (BASF SE, priority 2012, published 2015)
Some of these results come from one statement about several compounds together.

Legend:
Type in all cases: in vivo
[1] = test system: Cowpea Aphid (aphis craccivora); assay: Cowpea aphid spray test on potted cowpea plants; settings: 300 ppm, assessed after 24, 72 and 120 hours, in comparison with untreated controls
Description: If not otherwise specified the test solutions are prepared as follow:
The active compound is dissolved at the desired concentration in a mixture of 1:1 (vol:vol) distilled water:acteon. The test solution is prepared at the day of use and in general at concentrations of […].
B.2 Cowpea Aphid (aphis craccivora)
Potted cowpea plants colonized with approximately 100-150 aphids of various stages were sprayed after the pest population has been recorded. Population reduction was assessed after 24, 72, and 120 hours.

[2] = test system: Cotton Aphid (Aphis gossypi); assay: Cotton aphid spray test on infested cotton plants; settings: 300 ppm, after 5 days, in comparison with untreated controls
Excerpt: B.1 Cotton Aphid (Aphis gossypi)
(§1) The active compounds were formulated in cyclohexanone as a 10,000 ppm solution supplied in tubes. The tubes were inserted into an automated electrostatic sprayer equipped with an atomizing nozzle and they served as stock solutions for which lower dilutions were made in 50% acetone: 50% water (v/v). A nonionic surfactant (Kinetic®) was included in the solution at a volume of 0.01% (v/v).
Cotton plants at the cotyledon stage were infested with aphids prior to treatment by placing a heavily infested leaf from the main aphid colony on top of each cotyledon. Aphids were allowed to transfer overnight to accomplish an infestation of 80-100 aphids per plant and the host leaf was removed. The infested plants were then sprayed by an automated electrostatic plant sprayer equipped with an atomizing spray nozzle. The plants were dried in the sprayer fume hood, removed from the sprayer, and then maintained in a growth room under fluorescent lighting in a 24-hr photoperiod at 25° C. and 20-40% relative humidity. Aphid mortality on the treated plants, relative to mortality on untreated control plants, was determined after 5 days.

[3] = test system: Green Peach Aphid (Myzus persicae); assay: Green peach aphid spray test on bell pepper plants; settings: 300 ppm, after 5 days, in comparison with untreated controls
Excerpt: B.8 Green Peach Aphid (Myzus persicae)
as §1, with “are” for “were”, “is” for “was”
Bell pepper plants at the first true-leaf stage are infested prior to treatment by placing heavily infested leaves from the main colony on top of the treatment plants. Aphids are allowed to transfer overnight to accomplish an infestation of 30-50 aphids per plant and the host leaves are removed. The infested plants are then sprayed by an automated electrostatic plant sprayer equipped with an atomizing spray nozzle. The plants are dried in the sprayer fume hood, removed, and then maintained in a growth room under fluorescent lighting in a 24-hr photoperiod at about 25° C. and about 20-40% relative humidity. Aphid mortality on the treated plants, relative to mortality on untreated control plants, is determined after 5 days.

Measured: mortality

N-methylcarbamoyl-(1aR,3aR,9bR)-1a,2,3,3a,4,6-hexahydro-1a,3-dimethyl-1H-cycloprop[c]indolo[4,3-ef]indole [compound 1-2]
at least 75%: [1] | [2] | [3]
